# PubChem BioAssay (EPA / NIEHS)
# The chains behind the UniProt entries cited, without tags or fusion partners. Where a name states a change or a piece, a line headed by the entry shows the natural chain unless it says otherwise.
# UniProt P37231: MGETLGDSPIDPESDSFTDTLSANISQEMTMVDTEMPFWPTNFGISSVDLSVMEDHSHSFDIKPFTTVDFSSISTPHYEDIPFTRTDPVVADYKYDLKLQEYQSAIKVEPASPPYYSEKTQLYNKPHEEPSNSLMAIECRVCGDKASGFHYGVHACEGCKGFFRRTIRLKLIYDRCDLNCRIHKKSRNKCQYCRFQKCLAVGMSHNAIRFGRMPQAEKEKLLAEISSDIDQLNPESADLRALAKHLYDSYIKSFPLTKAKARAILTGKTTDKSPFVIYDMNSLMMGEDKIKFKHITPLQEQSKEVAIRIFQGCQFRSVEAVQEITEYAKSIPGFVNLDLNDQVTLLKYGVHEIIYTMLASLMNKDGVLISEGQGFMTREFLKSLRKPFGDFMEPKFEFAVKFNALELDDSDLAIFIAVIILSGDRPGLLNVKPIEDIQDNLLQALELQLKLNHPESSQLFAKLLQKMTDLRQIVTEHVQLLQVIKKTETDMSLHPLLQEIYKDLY
# UniProt P13631, whole entry, looked up: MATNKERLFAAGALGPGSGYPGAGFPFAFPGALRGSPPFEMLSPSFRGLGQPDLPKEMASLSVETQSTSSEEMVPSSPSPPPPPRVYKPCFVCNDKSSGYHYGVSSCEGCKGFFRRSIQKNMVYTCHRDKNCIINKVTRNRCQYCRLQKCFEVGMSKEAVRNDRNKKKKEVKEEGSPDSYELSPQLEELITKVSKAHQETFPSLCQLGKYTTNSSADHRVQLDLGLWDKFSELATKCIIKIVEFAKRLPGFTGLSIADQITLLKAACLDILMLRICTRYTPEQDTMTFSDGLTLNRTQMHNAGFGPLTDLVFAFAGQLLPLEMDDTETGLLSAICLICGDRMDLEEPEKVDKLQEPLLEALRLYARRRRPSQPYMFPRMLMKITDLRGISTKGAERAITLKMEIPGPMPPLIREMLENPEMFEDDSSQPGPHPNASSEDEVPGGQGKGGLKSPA
# UniProt Q92753: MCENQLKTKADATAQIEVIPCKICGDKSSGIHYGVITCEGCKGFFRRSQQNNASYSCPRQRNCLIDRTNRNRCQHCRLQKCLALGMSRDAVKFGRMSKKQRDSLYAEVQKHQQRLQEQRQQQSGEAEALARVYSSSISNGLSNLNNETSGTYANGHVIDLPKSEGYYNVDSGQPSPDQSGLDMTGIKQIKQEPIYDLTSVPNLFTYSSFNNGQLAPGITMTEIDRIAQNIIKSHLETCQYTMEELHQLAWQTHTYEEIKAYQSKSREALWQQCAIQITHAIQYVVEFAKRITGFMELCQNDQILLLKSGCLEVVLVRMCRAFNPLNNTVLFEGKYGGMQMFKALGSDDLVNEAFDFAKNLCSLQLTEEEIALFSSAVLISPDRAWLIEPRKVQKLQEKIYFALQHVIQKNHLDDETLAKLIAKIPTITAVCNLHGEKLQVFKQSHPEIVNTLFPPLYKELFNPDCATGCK
# UniProt P51449: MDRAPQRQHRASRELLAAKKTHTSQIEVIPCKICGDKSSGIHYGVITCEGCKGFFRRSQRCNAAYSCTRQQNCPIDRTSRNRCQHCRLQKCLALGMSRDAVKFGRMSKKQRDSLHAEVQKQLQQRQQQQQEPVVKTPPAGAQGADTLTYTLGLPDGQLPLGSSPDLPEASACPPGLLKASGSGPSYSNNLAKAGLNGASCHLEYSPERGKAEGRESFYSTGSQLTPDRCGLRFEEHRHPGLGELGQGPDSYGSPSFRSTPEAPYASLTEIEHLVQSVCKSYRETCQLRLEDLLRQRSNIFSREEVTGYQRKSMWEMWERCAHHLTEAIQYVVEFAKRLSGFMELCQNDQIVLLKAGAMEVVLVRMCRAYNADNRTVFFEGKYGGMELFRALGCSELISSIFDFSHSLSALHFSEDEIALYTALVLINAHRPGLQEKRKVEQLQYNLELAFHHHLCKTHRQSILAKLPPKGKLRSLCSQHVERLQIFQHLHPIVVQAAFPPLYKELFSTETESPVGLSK
# UniProt P10827: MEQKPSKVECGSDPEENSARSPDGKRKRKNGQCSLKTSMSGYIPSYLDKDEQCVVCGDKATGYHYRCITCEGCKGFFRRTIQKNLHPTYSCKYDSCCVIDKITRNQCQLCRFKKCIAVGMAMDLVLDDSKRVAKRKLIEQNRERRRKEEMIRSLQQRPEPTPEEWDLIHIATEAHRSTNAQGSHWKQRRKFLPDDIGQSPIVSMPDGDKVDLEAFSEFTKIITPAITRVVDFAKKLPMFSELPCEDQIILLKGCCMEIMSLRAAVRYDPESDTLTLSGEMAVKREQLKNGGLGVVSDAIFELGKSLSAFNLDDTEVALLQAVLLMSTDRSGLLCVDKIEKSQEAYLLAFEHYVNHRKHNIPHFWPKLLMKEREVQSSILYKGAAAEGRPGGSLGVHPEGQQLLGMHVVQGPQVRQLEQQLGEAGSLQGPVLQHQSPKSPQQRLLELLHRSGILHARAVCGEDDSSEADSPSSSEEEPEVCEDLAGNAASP
# UniProt P11473: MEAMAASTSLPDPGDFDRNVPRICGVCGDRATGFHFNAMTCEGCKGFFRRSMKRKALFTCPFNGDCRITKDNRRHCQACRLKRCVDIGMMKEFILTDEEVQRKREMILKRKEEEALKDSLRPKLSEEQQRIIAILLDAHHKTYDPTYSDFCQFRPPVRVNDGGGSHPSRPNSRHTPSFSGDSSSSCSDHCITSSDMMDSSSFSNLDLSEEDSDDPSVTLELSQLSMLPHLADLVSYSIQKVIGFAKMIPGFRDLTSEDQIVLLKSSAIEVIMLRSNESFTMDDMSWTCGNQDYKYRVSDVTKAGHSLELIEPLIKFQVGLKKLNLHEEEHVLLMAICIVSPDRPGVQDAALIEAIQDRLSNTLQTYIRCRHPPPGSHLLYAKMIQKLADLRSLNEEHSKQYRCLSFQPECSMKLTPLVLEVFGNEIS
# UniProt P28702: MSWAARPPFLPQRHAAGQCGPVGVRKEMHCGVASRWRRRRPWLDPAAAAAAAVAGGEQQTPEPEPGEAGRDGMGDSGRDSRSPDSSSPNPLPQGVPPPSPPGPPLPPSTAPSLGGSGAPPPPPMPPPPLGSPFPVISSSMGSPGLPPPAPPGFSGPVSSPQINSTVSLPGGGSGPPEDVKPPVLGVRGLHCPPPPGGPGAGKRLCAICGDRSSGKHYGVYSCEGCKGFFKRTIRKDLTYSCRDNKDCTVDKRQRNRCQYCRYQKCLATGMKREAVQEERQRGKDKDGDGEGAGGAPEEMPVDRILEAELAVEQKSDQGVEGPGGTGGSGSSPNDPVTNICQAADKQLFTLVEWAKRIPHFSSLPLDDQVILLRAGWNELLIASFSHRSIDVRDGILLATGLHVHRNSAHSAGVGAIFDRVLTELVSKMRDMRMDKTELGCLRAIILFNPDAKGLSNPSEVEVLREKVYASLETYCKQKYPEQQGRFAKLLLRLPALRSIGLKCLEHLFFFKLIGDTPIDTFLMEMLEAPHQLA
# UniProt P19793: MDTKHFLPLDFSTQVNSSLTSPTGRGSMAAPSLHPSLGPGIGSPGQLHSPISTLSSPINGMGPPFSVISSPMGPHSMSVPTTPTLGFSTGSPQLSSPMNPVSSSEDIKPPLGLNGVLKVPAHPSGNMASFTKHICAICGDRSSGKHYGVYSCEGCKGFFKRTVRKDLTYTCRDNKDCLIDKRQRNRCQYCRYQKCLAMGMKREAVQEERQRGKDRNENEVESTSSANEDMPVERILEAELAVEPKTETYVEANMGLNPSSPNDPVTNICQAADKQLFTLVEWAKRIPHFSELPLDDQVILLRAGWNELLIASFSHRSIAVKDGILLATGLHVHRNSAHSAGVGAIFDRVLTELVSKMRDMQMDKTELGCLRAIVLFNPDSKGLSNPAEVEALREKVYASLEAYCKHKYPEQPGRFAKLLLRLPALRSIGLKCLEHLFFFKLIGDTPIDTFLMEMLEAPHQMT
# This list was built around the results that the source calls inconclusive (neither active nor inactive); the mix of calls is not that of the screen. Where the call is inconclusive, the potency comes from a doubtful curve fit. Activity calls are given as the source filed them. The calls were made as follows: active = hit-call score of the fitted dose curve at least 0.9, where 1 is the maximum; inconclusive = response in the unintended direction; inactive = score below 0.9.
# Tests used:
# [1] = molecular target: Peroxisome proliferator-activated receptor gamma (Homo sapiens) (UniProt P37231); assay: ATG_PPARg_TRANS: Attagene TRANS-FACTORIAL HepG2 Assay for human Peroxisome Proliferator-activated Receptor-gamma (PPARg) (AID 2283007)
# Outline: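 Chimeric NR-Gal4 transactivation is measured in transiently transfected HepG2 cells by reporter mRNA induction at 24 h. Detection uses RT-PCR with fluorescent labelling and capillary electrophoresis; DMSO defines baseline.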
# [2] = molecular target: human Retinoic Acid Receptor gamma (RARg), RARG (gene 5916) (UniProt P13631); assay: ATG_RARg_TRANS: Attagene TRANS-FACTORIAL HepG2 Assay for human Retinoic Acid Receptor gamma (RARg) (AID 2283009);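 as to AC50: AC50 is for reporter induction above DMSO meaning RARg activation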
# Outline: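 Readout: reporter transcript levels via RT-PCR, 6-FAM primer-extension labelling, HpaI digestion and capillary electrophoresis. Cells: HepG2 carrying transfected RARg-GAL4 chimera plus UAS reporter set. Dosing 24 h; DMSO negative control.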
# [3] = molecular target: human RAR-related Orphan Receptor beta (RORb), RORB (gene 6096) (UniProt Q92753); assay: ATG_RORb_TRANS: Attagene TRANS-FACTORIAL HepG2 Assay for human RAR-related Orphan Receptor beta (RORb) (AID 2283010);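 as to AC50: potency for increased reporter mRNA meaning activation of RORb-Gal4 chimera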
# Outline: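 HepG2, transient MRTU transfection (GAL4-UAS reporters, exogenous NR-Gal4 chimeras); 24 h compound exposure; total RNA → RT-PCR → 6-FAM primer extension → HpaI digest → CE fluorescence. Positive direction vs DMSO baseline.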
# [4] = molecular target: human RAR-related Orphan Receptor gamma (RORg), RORC (gene 6097) (UniProt P51449); assay: ATG_RORg_TRANS: Attagene TRANS-FACTORIAL HepG2 Assay for human RAR-related Orphan Receptor gamma (RORg) (AID 2283011);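 as to AC50: potency for induction of reporter transcripts above DMSO so activators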
# Outline: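 Readout: reporter transcript induction (RT-PCR, fluorescent primer extension, capillary electrophoresis) after 24 h compound exposure of transiently transfected HepG2 cells carrying a RORg-Gal4 chimera and GAL4-UAS reporters; DMSO served as baseline, with increasing signal fitted.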
# [5] = molecular target: human Thyroid Receptor alpha (THRa1), THRA (gene 7067) (UniProt P10827); assay: ATG_THRa1_TRANS: Attagene TRANS-FACTORIAL HepG2 Assay for human Thyroid Receptor alpha (THRa1) (AID 2283014)
# Outline: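 HepG2 cells transiently transfected with multiplexed GAL4-UAS reporter units for exogenous chimeric THRa1-Gal4; reporter mRNA measured 24 h after dosing by RT-PCR, 6-FAM labelling, HpaI digestion and capillary electrophoresis. Gain-of-signal fitted versus DMSO baseline.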
# [6] = molecular target: human Vitamin D Receptor (VDR), VDR (gene 7421) (UniProt P11473); assay: ATG_VDR_TRANS: Attagene TRANS-FACTORIAL HepG2 Assay for human Vitamin D Receptor (VDR) (AID 2283022)
# Outline: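 HepG2 cells were transiently transfected with multiple GAL4-UAS reporter units, so signal reflects exogenous chimeric receptor-Gal4 activity. After 24 h compound exposure, reporter mRNA was measured by RT-PCR, fluorescent labelling and capillary electrophoresis, fitted for gain of signal versus DMSO.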
# [7] = molecular target: human Retinoid X Receptor beta (RXRb), RXRB (gene 6257) (UniProt P28702); assay: ATG_RXRb_TRANS: Attagene TRANS-FACTORIAL HepG2 Assay for human Retinoid X Receptor beta (RXRb) (AID 2283013)
# Outline: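 Read-out: reporter mRNA induction via RT-PCR plus capillary electrophoresis fluorescence, analysed as signal increase relative to DMSO. Cells were human HepG2, transiently transfected with GAL4-UAS reporter constructs and chimeric receptor-Gal4 fusions, dosed for 24 h.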
# [8] = molecular target: Retinoic acid receptor RXR-alpha (Homo sapiens) (UniProt P19793); assay: ATG_RXRa_TRANS: Attagene TRANS-FACTORIAL HepG2 Assay for human Retinoid X Receptor alpha (RXRa) (AID 2283012)
# Outline: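 Read-out: fluorescent reporter-transcript fragments quantified by capillary electrophoresis after RT-PCR. Transiently transfected HepG2 cells carrying GAL4-UAS reporters and NR-GAL4 chimeras were exposed to chemical for 24 h; activity scored as increase over DMSO.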
smiles,measurement,setting,value
Nc1ccc(O)c([N+](=O)[O-])c1,outcome,[1],inactive
same,AC50,[2],inconclusive: 168 µM
same,outcome,[3],inactive
same,outcome,[4],inactive
same,outcome,[5],inactive
C[N+](C)(CCCNS(=O)(=O)CCC(F)(F)C(F)(F)C(F)(F)C(F)(F)C(F)(F)C(F)(F)F)CC(=O)[O-],outcome,[1],inactive
same,outcome,[2],inactive
same,AC50,[3],inconclusive: 0.0138 µM
same,AC50,[4],inconclusive: 0.00467 µM
same,outcome,[5],inactive
CCCCCCCCC(CO)CCCCCC (configuration not stated),outcome,[1],inactive
same,outcome,[2],inactive
same,outcome,[3],inactive
same,AC50,[4],inconclusive: 27.5 µM
same,AC50,[7],active: 21.9 µM
same,AC50,[5],inconclusive: 141 µM
same,outcome,[6],inactive
c1cc(N(CC2CO2)CC2CO2)ccc1Cc1ccc(N(CC2CO2)CC2CO2)cc1 (configuration not stated),outcome,[1],inactive
same,AC50,[2],inconclusive: 1.86 µM
same,AC50,[3],inconclusive: 26.8 µM
same,AC50,[4],inconclusive: 99.5 µM
same,AC50,[5],inconclusive: 99.5 µM
CC(C)(c1cc(Br)c(OCCO)c(Br)c1)c1cc(Br)c(OCCO)c(Br)c1,AC50,[1],active: 2.78 µM
same,AC50,[2],active: 0.454 µM
same,AC50,[3],inconclusive: 12.6 µM
same,AC50,[8],active: 81 µM
same,AC50,[7],inconclusive: 21.6 µM
same,outcome,[5],inactive
O=C(C=Cc1ccccc1)OCCc1ccccc1,AC50,[1],active: 3.05 µM
same,AC50,[2],inconclusive: 30.6 µM
same,outcome,[3],inactive
same,outcome,[4],inactive
same,outcome,[6],inactive
C=C(C)C(=O)OCCOc1ccccc1,AC50,[1],active: 28.5 µM
same,AC50,[2],inconclusive: 49.3 µM
same,AC50,[3],inconclusive: 26.2 µM
same,AC50,[4],inconclusive: 100 µM
same,AC50,[5],inconclusive: 100 µM
same,outcome,[6],inactive
C=CC(F)(F)C(F)(F)C(F)(F)C(F)(F)F,outcome,[1],inactive
same,AC50,[2],inconclusive: 150 µM
same,AC50,[3],inconclusive: 74.4 µM
same,outcome,[8],inactive
same,AC50,[7],inconclusive: 41.7 µM
same,AC50,[5],inconclusive: 150 µM
O=c1[nH]nc(-c2ccc([N+](=O)[O-])o2)o1,AC50,[1],inconclusive: 100 µM
same,AC50,[2],inconclusive: 35.4 µM
same,outcome,[3],inactive
same,AC50,[4],inconclusive: 100 µM
same,outcome,[7],inactive
same,AC50,[6],inconclusive: 23.4 µM
NC1CCCCC1N (configuration not stated),AC50,[1],inconclusive: 100 µM
same,AC50,[2],inconclusive: 0.748 µM
same,AC50,[4],inconclusive: 23.8 µM
same,AC50,[8],inconclusive: 100 µM
same,AC50,[7],inconclusive: 100 µM
same,AC50,[5],inconclusive: 0.0823 µM
same,outcome,[6],inactive
COCc1c(C(C)C)nc(C(C)C)c(/C=C/[C@@H](O)C[C@@H](O)CC(=O)O)c1-c1ccc(F)cc1,AC50,[1],active: 12.8 µM
same,AC50,[2],inconclusive: 36.3 µM
same,AC50,[3],inconclusive: 0.0379 µM
same,AC50,[5],inconclusive: 46 µM
NS(=O)(=O)c1cc(C(=O)O)c(NCc2ccco2)cc1Cl,AC50,[1],active: 42.7 µM
same,AC50,[2],inconclusive: 182 µM
same,outcome,[3],inactive
same,AC50,[7],inconclusive: 173 µM

# In another format: results already given.
smiles	measurement	setting	value
Nc1ccc(O)c([N+](=O)[O-])c1	outcome	[1]	inactive
CCCCCCCCC(CO)CCCCCC (configuration not stated)	AC50	[4]	inconclusive: 27.5 µM
CC(C)(c1cc(Br)c(OCCO)c(Br)c1)c1cc(Br)c(OCCO)c(Br)c1	AC50	[1]	active: 2.78 µM
NC1CCCCC1N (configuration not stated)	AC50	[8]	inconclusive: 100 µM
NS(=O)(=O)c1cc(C(=O)O)c(NCc2ccco2)cc1Cl	AC50	[2]	inconclusive: 182 µM
